The experiment can be described thus: qHTS Assay to Find Inhibitors of Chronic Active B-Cell Receptor Signaling. The settings on record: ABC-DLBCL IkBa-CBG/CBR reporter, luminescence ratio (green luciferase fused to IkBa over red control in TMD8 lymphoma cells), 4 h. In outline:
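Doxycycline induced both beetle luciferases in TMD8 lymphoma cells; IKK-driven degradation limits the IkappaBalpha-fused green signal, while red luminescence normalises for cell number and nonspecific effects. Compounds tested up to 46 uM, 4 hrs.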
For orientation: In qHTS, concentration-response curves come from the screen itself.

Setting [1] is: measured here: CBR red luminescence, cell number.
[2] abbreviates: measured here: IkBa-CBG green luminescence.

The other results are listed elsewhere or left out. These are further read-outs of the screen, such as a control signal, another cell line or another target. No call is given for them. The list favours compounds with an active or inconclusive main result. The note in brackets gives the kind of curve behind each potency; many fits are weak.

Broadly, the AC50 is the midpoint of the concentration-response curve, whichever way the signal moves. Turning to `CC(C)(C)OC(=O)NCc1ccc(CNC(=O)c2[nH]cnc2C(=O)NC2CCN(C(=O)OC(C)(C)C)CC2)cc1`, under setting [1], the AC50 was 29.1 µM [falling, single point].

`N#CNC(=Nc1cccc(F)c1)SCc1ccccc1F`: the concentration at half-maximal activity (AC50) under setting [1] is 23.1 µM [falling, single point].

As to `O=C(COC(=O)/C=C/c1ccc(C(F)(F)F)cc1)Nc1ccc2[nH]c(=O)[nH]c2c1`, the half-maximal activity concentration (AC50) under setting [1] is 6.51 µM [rising, single point].

With `Cc1oc(-c2ccc(Cl)cc2)cc1C(=O)NC1CCN(Cc2ccccc2)CC1`, the half-maximal activity concentration (AC50) under setting [1] is 3.16 µM [rising, full curve, poor fit].

On to `Clc1ccc2nc(CSCc3ccccc3)cn2c1`, for which the AC50 under setting [1] is 0.398 µM [rising, full curve, poor fit].

Consider `O=C(NC(=S)Nc1ccc(N2CCCC2)cc1)c1ccc(F)cc1`, for which the half-maximal activity concentration (AC50) under setting [1] was 0.562 µM [falling, full curve].

As for `COc1ccccc1N(C)S(=O)(=O)c1ccc(C(=O)Nc2nc(C)cs2)cc1`, the AC50 under setting [1] was 17.8 µM [falling, partial curve, poor fit].

Turning to `O=S1(=O)N=C(N(CCO)/N=C/c2ccc(Cl)cc2)c2ccccc21`, under setting [1], the concentration at half-maximal activity (AC50) is 12.6 µM [rising, partial curve].

As for `O=C(O)c1ccccc1N=Cc1c(O)n(-c2nccs2)c(=O)c2ccccc12`, the AC50 under setting [1] is 10 µM [falling, partial curve].

With `CCc1ccc2c(c1)CCCN2C(=O)c1ccccc1C(=O)O`, the AC50 under setting [1] is 2.06 µM [falling, partial curve, poor fit].

With `CCCc1cc(C(=O)NC2CCCCC2)no1`, the concentration at half-maximal activity (AC50) under setting [1] was 2.06 µM [falling, full curve].

As to `O=C(O)Cc1ccc(NC(=O)c2ccc(NC(=O)C3CC3)cc2)cc1`, under setting [1], the half-maximal activity concentration (AC50) is 17.8 µM [falling, partial curve].

Turning to `COc1ccc2oc(=O)c(-c3cn4c(n3)sc3cc(F)ccc34)cc2c1`, the half-maximal activity concentration (AC50) under setting [1] was 14.1 µM [falling, partial curve].

Regarding `O=C(/C=C/c1ccccc1)NNC(=O)c1cccs1`, under setting [1], the AC50 was 10 µM [falling, partial curve].

Regarding `COC(=O)c1ccc(C)c(NC(=O)CN(c2cc(OC)ccc2OC)S(C)(=O)=O)c1`, the concentration at half-maximal activity (AC50) under setting [1] is 0.891 µM [rising, partial curve].

`Cc1ccc2c(CN3CCC(C)CC3)cc(=O)oc2c1`: the concentration at half-maximal activity (AC50) under setting [1] is 20.6 µM [falling, partial curve, poor fit].

Turning to `COC(=O)N/N=C\C=C\c1ccc2c(c1)OCO2`, the AC50 under setting [1] is 22.4 µM [falling, partial curve, poor fit].

As for `O=c1[nH]c(COc2ccccc2)nc2ccccc12`, under setting [1], the concentration at half-maximal activity (AC50) is 11.2 µM [falling, partial curve, poor fit].

Turning to `COCc1cc(CN(C)C(=O)c2oc3c(F)cccc3c2C)[nH]n1`, the concentration at half-maximal activity (AC50) under setting [1] is 11.2 µM [rising, single point].

Take `Cc1nc(NC(=O)c2ccccc2)sc1-c1csc(Nc2ccc(Cl)cc2)n1`: the concentration at half-maximal activity (AC50) under setting [1] was 35.5 µM [falling, partial curve, poor fit].

`O=C(OCc1cc(=O)n2cc(Br)ccc2n1)c1ccc(Cl)c(S(=O)(=O)NCc2ccccc2)c1`: the AC50 under setting [1] is 0.206 µM [rising, partial curve, poor fit].

Take `CCOc1ccc(C2NC(=O)C(C#N)=C(S)N2c2cccc(C)c2)cc1OC` (configuration not stated): under setting [1], the concentration at half-maximal activity (AC50) was 5.62 µM [rising, full curve, poor fit].

In the case of `COC(=O)CCCN1C(=O)c2cccc3cccc(c23)C1=O`, the AC50 under setting [1] was 2.82 µM [rising, partial curve].

As to `COc1cc(NC(=S)NNC(=O)CC(C)C)c(OC)cc1Cl`, the AC50 under setting [1] is 18.4 µM [rising, single point].

For the compound `COc1ccc(COc2cccc(C=O)c2)cc1`, the half-maximal activity concentration (AC50) under setting [1] was 9.2 µM [falling, partial curve].

On to `CCc1nnc(NC(=O)c2ccc(-c3ccc(C(C)=O)cc3)o2)s1`, for which the AC50 under setting [1] is 6.51 µM [falling, single point].

For `N#Cc1c(/N=C/c2ccco2)sc2c1CCCCC2`, under setting [1], the AC50 was 7.94 µM [rising, partial curve, poor fit].

`COC(=O)c1c(-c2ccncc2)csc1NC(=O)c1ccoc1C`: the AC50 under setting [1] was 7.31 µM [rising, partial curve, poor fit].

On to `Cn1nnnc1SC(C(=O)Nc1cccc(C(F)(F)F)c1)c1ccccc1` (configuration not stated), for which, under setting [1], the half-maximal activity concentration (AC50) was 9.2 µM [falling, partial curve].

Regarding `COc1ccc2c(c1)C1=NN(/C(C)=C/C(C)=O)C(c3cccc(F)c3)C1CC2` (configuration not stated), the AC50 under setting [1] was 8.2 µM [rising, partial curve, poor fit].

In the case of `CN(C(=O)COC(=O)c1ccccc1OCc1ccc(Cl)cc1)c1c(N)n(Cc2ccccc2)c(=O)[nH]c1=O`, the AC50 under setting [1] was 0.13 µM [rising, full curve, poor fit].

Consider `Cc1ccc(NC(=S)/N=C(\N)Nc2nc(C)c3ccccc3n2)cc1C`, for which the concentration at half-maximal activity (AC50) under setting [1] was 5.8 µM [falling, partial curve].

As for `O=C(NC(=S)Nc1ccccc1C(=O)O)c1ccc(-c2ccc(Br)cc2)o1`, the AC50 under setting [1] is 7.08 µM [falling, full curve].

Regarding `COc1ccc(OC)c(NC(=O)C2CCCC2)c1`, the AC50 under setting [1] was 0.146 µM [rising, full curve, poor fit].

As to `CCOC(=O)c1c(N2C(=O)C=CC2=O)sc(C)c1C`, the concentration at half-maximal activity (AC50) is, setting by setting: under setting [1], 8.2 µM [falling, partial curve]; under setting [2], 9.2 µM [rising, partial curve, poor fit].

As to `N/C(=N\OC(=O)C1CCCCC1)c1cccc([N+](=O)[O-])c1`, the concentration at half-maximal activity (AC50) under setting [1] was 5.01 µM [rising, partial curve].

In the case of `COCC(C)n1c(C)cc(C(=O)CSc2nnc(Nc3ccccc3F)s2)c1C` (configuration not stated), the AC50 under setting [1] was 3.16 µM [falling, partial curve].

For the compound `CC(=O)NC1C(=O)N=C(SCc2ccccc2)NC1=O` (configuration not stated), under setting [1], the concentration at half-maximal activity (AC50) was 0.164 µM [falling, full curve, poor fit].

As to `Cc1[nH]c2ccccc2c1C(C#N)(C#N)C1C(=O)c2ccccc2C1=O`, the half-maximal activity concentration (AC50) is, setting by setting: under setting [1], 35.5 µM [falling, single point]; under setting [2], 31.6 µM [rising, single point].

On to `CCn1cc(C(=O)N(CCC(C)C)c2c(N)n(Cc3ccccc3)c(=O)[nH]c2=O)c(=O)c2ccc(C)nc21`, for which, under setting [1], the AC50 was 11.2 µM [falling, partial curve, poor fit].

The values above are taken from PubChem BioAssay AID493014 (National Center for Advancing Translational Sciences (NCATS), 2011).
